Assay results: patent US11142539B2, “Phosphinogold(I) complexes and methods of treating cancer” (King Fahd University of Petroleum and Minerals, priority 2020, dated 2021)

System: A549 (human lung carcinoma) cell line
Assay: Cell Titer-Glo luminescence-based cell growth inhibition assay, A549
Conditions: A549 cells, 72 hours incubation, spread in brackets
Method: The cell growth inhibition effects of gold(I) complexes 1-4 and cisplatin were measured by the Cell Titer-Glo® luminescence-based assay against the A549 (human lung carcinoma), HeLa (human cervical cancer), and HepG2 (human liver cancer) cell lines according to manufacturer's protocol. Briefly, the cell suspensions were added to each well of 384-w plate at a suitable density (total volume of 40 μL). The margin wells of plate were filled with PBS buffer. The gold(I) complexes were added at various concentrations in triplicate (10 μL solutions of the complex added to the plate), then the plate was incubated for 72 hours in 5% CO2 incubator at 37° C. After that the Cell Titer reagent was added to each tested well and stirred for 2 minutes on an orbital shaker. […] Luminescence signals were measured on PHERAstar Plus. […] The potential effect of the testing complexes on cell growth inhibition expressed as IC50 values was calculated by the formula below: Cell growth Inhibition %=100-100*(Luminescencecomplex)/(LuminescenceDMSO) Cell viability %=100*(Luminescencecomplex)/(LuminescenceDMSO)
The gold(I) complexes 1-4 and cisplatin were examined for their cell growth inhibition effects against A549, HeLa, and HepG2 human cancer cell lines using Cell Titer-Glo® luminescence-based assay. […]

**Q.** For `N.N.[Cl][Pt][Cl]` [Cisplatin, cisplatin], which IC50 is on record?
**A.** 13.8 µM
